Test results as given in US8968997B2, “Benzoxazole-based fluorescent metal ion indicators” (Life Technologies Corporation, priority 2008, dated 2015).

Assay: Spectrofluorimetry studies: excitation and emission spectra and ratiometric response to metal ion binding
Format: physicochemical
Conditions: type of fluorescence response to metal ion (Ca^2+) binding
Experimental: The excitation and emission spectra of solutions of various ion indicators (concentration 1-2 μM) were recorded in 30 mM MOPS and 100 mM KCl buffers containing 0 to 200 nM free calcium ion. The binding constant values were calculated based on 8-10 data points taken in buffers covering the concentration range appropriate for the Kd value. Spectral curves for derivatives of Compound 7 (with different R substitutents) were recorded using a standard spectrofluorimeter.
FIGS. 1-3 show excitation and emission spectra for several of the tested compounds. […]

| Compound | Ratiometric Response |
| --- | --- |
| COc1cc(N(C)C)ccc1-c1nc2cc(OCCOc3cc(C)ccc3N(CC(=O)O)CC(=O)O)c(N(CC(=O)O)CC(=O)O)cc2o1 [Compound 7f] | emission |
| Cc1ccc(N(CC(=O)O)CC(=O)O)c(OCCOc2cc3nc(-c4ccc(N(C)C)cc4O)oc3cc2N(CC(=O)O)CC(=O)O)c1 [Compound 7g] | emission |
| Cc1ccc(N(CC(=O)O)CC(=O)O)c(OCCOc2cc3nc(-c4cc5c6c(c4)CCCN6CCC5)oc3cc2N(CC(=O)O)CC(=O)O)c1 [Compound 7h] | emission |
| Cc1ccc(N(CC(=O)O)CC(=O)O)c(OCCOc2cc3nc(-c4nc5ccccc5s4)oc3cc2N(CC(=O)O)CC(=O)O)c1 [Compound 7i] | excitation |
| Cc1ccc(N(CC(=O)O)CC(=O)O)c(OCCOc2cc3nc(-c4cccc(=O)[nH]4)oc3cc2N(CC(=O)O)CC(=O)O)c1 [Compound 7j] | excitation |
| Cc1ccc(N(CC(=O)O)CC(=O)O)c(OCCOc2cc3nc(-c4cc[n+]([O-])cc4)oc3cc2N(CC(=O)O)CC(=O)O)c1 [Compound 7k] | excitation-ratiometric response |
| Cc1ccc(N(CC(=O)O)CC(=O)O)c(OCCOc2cc3nc(-c4ccc5nonc5c4)oc3cc2N(CC(=O)O)CC(=O)O)c1 [Compound 7l] | excitaton |
| Cc1ccc(N(CC(=O)O)CC(=O)O)c(OCCOc2cc3nc(/C=C/c4ccc(N(C)C)c5ccccc45)oc3cc2N(CC(=O)O)CC(=O)O)c1 [Compound 7p] | non- |
| Cc1ccc(N(CC(=O)O)CC(=O)O)c(OCCOc2cc3nc(/C=C/c4cc5c6c(c4)CCCN6CCC5)oc3cc2N(CC(=O)O)CC(=O)O)c1 [Compound 7q] | non- |
| Cc1ccc(N(CC(=O)O)CC(=O)O)c(OCCOc2cc3nc(-c4ccc5cc(N(C)C)ccc5c4)oc3cc2N(CC(=O)O)CC(=O)O)c1 [Compound 7r] | non- |
| Cc1ccc(N(CC(=O)O)CC(=O)O)c(OCCOc2cc3nc(-c4cc5cc6c7c(c5oc4=O)CCCN7CCC6)oc3cc2N(CC(=O)O)CC(=O)O)c1 [Compound 7t] | non-ratiometric response and non- |
